Data on twelve molecules can be found in patent US20260265396A1.

Numbering of substitutions follows the chain as printed. In names and notes the source's numbering stands. These are yes or no findings as the source states them, for the method shown. Some binding calls cover weakened binding; strength is not graded here.

Assay [1] addresses cynomolgus TfR1, construct not stated (cynomolgus). The assay is described as follows: BLI (Octet), 15 nM Fab on cTfR1 captured by biotinylated human holo-transferrin on streptavidin sensors [panel mouse 26D3-Fab, cTfR1]. On the technique in general: BLI is a label-free optical method that tracks binding on a fibre tip over time.
The target is the same in assay [2]. Kind of assay: BLI, cTfR1 captured on biotinylated holo-transferrin, 15 nM Fab.
Assay [3] deals with chimeric TfR1 consisting of human protease like domain grafted on mouse TfR1 ectodomain (SEQ ID NO:59) (human/mouse chimera). The assay is described as follows: indirect ELISA, antigen coated at 1 µg/ml, mouse IgG. (In general: ELISA stands for enzyme-linked immunosorbent assay.)
The target in assay [4] is cynomolgus TfR1, construct not stated (cynomolgus). Kind of assay: BLI, IgG captured from hybridoma supernatant, 250 nM cTfR1.
The target of assay [5] is chimeric TfR1 consisting of human protease like domain grafted on mouse TfR1 ectodomain (SEQ ID NO:59) (human/mouse chimera). Kind of assay: indirect ELISA, plate coated with 1 ug/ml h/m protease-like domain chimera, mouse IgG dilution series (axis labelled TfR (ng/ml)) [D].
The target of assay [6] is cynomolgus TfR1, construct not stated (cynomolgus). Kind of assay: ELISA, hybridoma supernatant.
Assay [7] concerns the target chimeric TfR1 consisting of human protease like domain grafted on mouse TfR1 ectodomain (SEQ ID NO:59) (human/mouse chimera). The assay is described as follows: indirect ELISA (legend of FIG. 7).
Assay [8] deals with cynomolgus TfR1, construct not stated (cynomolgus). Kind of assay: BLI (Octet), IgG captured from crude hybridoma supernatant on anti-mouse sensors, 250 nM cTfR1 in solution.
Assay [9] has the same target. Kind of assay: indirect ELISA, plate coated with cTfR1, Fab dilution series, anti-human IgG F(ab')2-HRP [upper right panel cTfR1].
Assay [10] deals with human TfR1, recombinant, construct not stated for the experiment (human) (UniProt P02786). Kind of assay: indirect ELISA, plate coated with 1 ug/ml recombinant hTfR1 ectodomain, Fab 1:3 dilution series, anti-human IgG F(ab')2-HRP [lower panel hTfR1].

B1: 26D3-Fab (murine) (Fab, V domains shown)
VH: EVQLQQFGVELVKPGASVKISCKASGYIFTDYNMDWVKQSHGKSLEWIGDINPDYDTTSYNEKFKGKATLTVDKSSSTAYMELRSLTSEDTAVYYCARGGYSGSSYYHPMDYWGQGTSVTVSS
VL: DIVMSQSPSSLAVSVGEKITMSCKSSQSLLYSTNQKNYLAWYQQKPGQSPELLIYWASTRESGVPDRFTGSGSGTDFTLTISNVRAEDLAVYYCQQYFIYPRTFGGGTKLEIK
Regarding B1, the binding result in [1] and in assay [2] was “binds” throughout.

B2: mouse monoclonal antibody 26D3 (antibody, mouse IgG2a, V domains shown)
VH: B1 VH
VL: B1 VL
As for B2, the binding entry in assay [3], in assay [4], in [5], in [6], in [7] and in assay [8] was “binds” in each case.

B3: h26D3 Fab (humanized 26D3) (Fab, V domains shown)
VH: EVQLVQSGAEVKKPGSSVKVSCKASGYIFTDYNMDWVRQAPGQGLEWIGDINPDYDTTSYNEKFKGRATLTVDKSTSTAYMELSSLRSEDTAVYYCARGGYSGSSYYHPMDYWGQGTLVTVSS
VL: DIQMTQSPSSVSASVGDRVTITCKSSQSLLYSTNQKNYLAWYQQKPGKAPKLLIYWASTRESGVPSRFSGSGSGTDFTLTISSLQPEDFATYYCQQYFIYPRTFGQGTKVEIK
Turning to B3, the binding result in assay [9] was “binds”.

B4: h26D3 variant HC6 Fab (VH Y55A) (Fab, V domains shown)
VH: B3 VH with Y55A
VL: B3 VL
As to B4, the binding result in assay [9] was “binds”.

B5: h26D3 variant HC11 Fab (VH Y107A) (Fab, V domains shown)
VH: B3 VH with Y107A
VL: B3 VL
As to B5, the binding entry in assay [10] is “binds”.

B6: h26D3 variant LC1 Fab (VL Y31A) (Fab, V domains shown)
VH: B3 VH
VL: B3 VL with Y31A
In the case of B6, the binding entry in [9] is recorded as “binds”.

B7: h26D3-HC10/LC1 (Fab, V domains shown)
VH: B3 VH with Y106A
VL: B3 VL with Y31A
For the molecule B7, in [10], the binding result is reported as “binds”.

B8: h26D3-HC6/LC5 (Fab, V domains shown)
VH: B3 VH with Y55A
VL: B3 VL with Y97A
Consider B8, for which the binding entry in assay [9] is listed as “binds”.

B9: h26D3 variant HC10 Fab (VH Y106A) (Fab, V domains shown)
VH: B3 VH with Y106A
VL: B3 VL
Turning to B9, the binding entry in [10] is given as “binds”.

B10: h26D3 variant HC3 Fab (VH D35A) (Fab, V domains shown)
VH: B3 VH with D35A
VL: B3 VL
Take B10: in [9], the binding entry is “binds”.

B11: h26D3 variant LC5 Fab (VL Y97A) (Fab, V domains shown)
VH: B3 VH
VL: B3 VL with Y97A
Turning to B11, in assay [9], the binding entry was “binds”.

B12: h26D3-HC10/LC5 (Fab, V domains shown)
VH: B3 VH with Y106A
VL: B3 VL with Y97A
Turning to B12, the binding result in assay [10] is on record as “binds”.
